# Reference: PubChem BioAssay AID504834 (National Center for Advancing Translational Sciences (NCATS), 2011)
# The whole screen tested about 320,000 compounds, of which about 22,000 (6.9%) were called active. Inconclusive results, whose numbers are uncertain, are shown with a selection of clear calls. Calls come from the whole dose curve; as a rule, active = well fitted inhibition curve with a large enough effect; inconclusive = small, poorly fitted or top-dose-only effect, or another doubt; inactive = no such curve, though single readings can be large or run the other way. Potencies beside an inconclusive call are fits to weak or partial responses and may not hold up.
# Assay: Primary qHTS for delayed death inhibitors of the malarial parasite plastid, 96 hour incubation
# Conditions: P. falciparum luciferase reporter growth; series mostly up to 28.7 µM; activity change, negative = inhibition: at the top concentration
# Outline: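 P. falciparum expressing integrated firefly luciferase, in erythrocytes at 2% hematocrit, 0.05% parasitemia, incubated with compounds 96 h at 37 C, 5% CO2. Growth inhibition read as loss of luminescence; two-generation exposure targets delayed-death apicoplast inhibitors.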
# % is set by controls: 0 for no effect and ±100 for the full control effect; potency is the fitted concentration of half-maximal effect.
Structure (SMILES),Potency,"activity change, negative = inhibition"
O=[N+]([O-])c1ccccc1NCc1c(O)ccc2ccccc12,"inconclusive: 18.5 µM [inhibitor, single point]",
O=C(OCc1cc(Cl)ccc1OC(F)F)c1cc(S(=O)(=O)O)ccc1O,"inconclusive: 11.7 µM [inhibitor, single point]",
COc1ccc(OC)c(S(=O)(=O)N2CCCC(C(=O)N3CCOCC3)C2)c1 (stereo not drawn),,inactive: 17.5%
CN(CC(=O)Nc1cccc(S(=O)(=O)N2CCOCC2)c1)CC(=O)Nc1ccc(Cl)c(C(F)(F)F)c1,"inconclusive: 13.1 µM [inhibitor, partial curve]",
COC(=O)c1c(NC(NC(C)=O)C(Cl)(Cl)Cl)sc2c1CCCC2 (stereo not drawn),active: 10.4 µM,
CCc1cccc2c(C(=O)CSc3nnc(C4CC4)o3)c[nH]c12,,inactive: -26%
CCCn1c(Sc2nnnn2-c2ccccc2)n[nH]c1=O,,inactive: -0.33%
c1ccc(COc2ccc(-c3sc(Nc4ccccc4)n[n+]3-c3ccccc3)cc2)cc1,"inconclusive: 0.522 µM [inhibitor, full curve, poor fit]",
CCOc1cc(N2CCOCC2)c(OCC)cc1NC(=O)COc1ncnc2ccc(Br)cc12,"inconclusive: 20.8 µM [inhibitor, partial curve, poor fit]",
O=C(CSc1ccc(-c2cccc([N+](=O)[O-])c2)nn1)NCc1ccccc1,,inactive: 0%
O=C(NC1=NCCS1)c1ccc(Cl)cc1,"inconclusive: 9.28 µM [inhibitor, single point]",
Cn1c(=O)c2c(nc(N3CCCCC3)n2CC(O)COc2ccccc2)n(C)c1=O (stereo not drawn),"inconclusive: 9.28 µM [inhibitor, partial curve, poor fit]",
CCCCCN1CC(O)=C(c2nc(-c3ccc(Cl)cc3)cs2)C1=N,"inconclusive: 0.0147 µM [inhibitor, full curve, poor fit]",
CCCc1[nH]nc2c1C(c1c(C)nn(-c3ccccc3)c1Cl)C(C#N)=C(N)O2 (stereo not drawn),"inconclusive: 2.08 µM [inhibitor, full curve]",
COc1ccc(/C=C/c2ccc3cccc(O)c3n2)cc1Br,,inactive: 0.0927%
CCS(=O)(=O)c1ccc2c(c1)N(S(=O)(=O)c1ccc(C)cc1)CC(C(=O)O)O2 (stereo not drawn),"inconclusive: 2.62 µM [inhibitor, full curve]",
COc1ccc(-c2nc(C#N)c(NCc3ccccc3Cl)o2)cc1,"inconclusive: 6.57 µM [inhibitor, partial curve, poor fit]",
COc1ccc(-c2cc(=O)oc3cc(OC(C)C(=O)Nc4ccc(CN5CCOCC5)cc4)ccc23)cc1 (stereo not drawn),active: 9.28 µM,
CN(c1ncc(C(F)(F)F)cc1Cl)N1C(=O)c2cccc([N+](=O)[O-])c2C1=O,,inactive: 35.5%
C/C(=N\Nc1nc(N)cc(Cl)n1)c1ccc(Cl)c(Cl)c1,,inactive: -22.4%
Cc1ccc(/C=C2\Oc3cc(OC(=O)N4CCOCC4)ccc3C2=O)cc1,"inconclusive: 5.22 µM [inhibitor, partial curve]",
Cc1cc(Cl)ccc1NC(=O)CSc1n[nH]c(N)n1,,inactive: 25.7%
Cc1cc(Br)c(NC(=O)c2c(-c3c(Cl)cccc3Cl)noc2C)c(Br)c1,active: 5.86 µM,
COc1ccc(CCNC(=O)c2nnn(-c3ccc4c(c3)OCCO4)c2N)cc1OC,,inactive: 0.425%
O=C(COC(=O)/C=C/c1ccccc1Cl)NC(=O)Cc1ccccc1,,inactive: 2.2%

Structure (SMILES),Potency,"activity change, negative = inhibition"
N#C/C(=N\Nc1ccccc1F)c1nc(-c2ccccc2)cs1,"inconclusive: 18.5 µM [inhibitor, single point]",
O=[N+]([O-])c1cccc(N/N=C/c2cccc3ccccc23)c1,,inactive: -75.8%
CCc1ccccc1NC(=O)CN(C)C(=O)CSc1nn(-c2ccc(F)cc2)c(=S)s1,"inconclusive: 18.5 µM [inhibitor, single point]",
CCCCC(NC(=O)c1ccccc1)C(=O)OCC(=O)N1c2ccccc2Sc2ccccc21 (stereo not drawn),"inconclusive: 9.28 µM [inhibitor, partial curve, poor fit]",
Nc1ccc(Oc2cc(N)cc(Oc3ccccc3)c2)cc1,"inconclusive: 9.28 µM [inhibitor, partial curve]",
CN(CC(=O)NC1CCN(Cc2ccccc2)CC1)S(=O)(=O)c1ccc(Cl)s1,"inconclusive: 11.7 µM [inhibitor, single point]",
O=C(Cn1nc(C(=O)O)c2ccccc2c1=O)Nc1cc(C(F)(F)F)ccc1-n1cncn1,,inactive: -4.56%
COc1ccc(C(=O)Nc2nnc(-c3ccco3)s2)cc1,,inactive: 315%
Nc1cc2nc3ccccc3oc-2cc1=O,active: 4.65 µM,
CC(C)CC(NC(=O)CCCNC(=O)CCC(=O)OC1O[C@H]2OC3(C)CC[C@H]4[C@H](C)CCC(C1C)C24OO3)C(=O)O (stereo partly drawn),"inconclusive: 0.0029 µM [inhibitor, full curve, poor fit]",
O=C(NCc1ccco1)c1cc2sccc2n1Cc1ccc(F)cc1,"inconclusive: 0.0037 µM [inhibitor, full curve]",
CC(CC(=O)NC1CCCCC1)S(=O)(=O)c1ccc2c(c1)CCN2C(=O)C1CC1 (stereo not drawn),"inconclusive: 14.7 µM [inhibitor, single point]",
C1=C(c2ccc(-c3ccccc3)cc2)Nc2ncnn2C1c1ccco1 (stereo not drawn),,inactive: 19.3%
CCOc1ccc2c(c1)c(N=NC(=N)N)c(O)n2C,,inactive: 50.8%
CC(=O)Nc1ccc(C(=O)NCC(=O)OCc2ccccc2F)cc1,"inconclusive: 3.29 µM [inhibitor, partial curve, poor fit]",
CCCCCCCSc1cc(OC)c(CCN(C)C)cc1OC,active: 4.65 µM,
Cc1nc(N2CCCCC2C)c2c(C)c(C(=O)Nc3cccc(C(F)(F)F)c3)sc2n1 (stereo not drawn),,inactive: 24.7%
Cc1nc2nc(CSc3ccc(Cl)cc3)cc(=O)n2[nH]1,,inactive: 11.3%
Cc1c(CCO)c(=O)n(C)n1C(=O)c1ccc(F)cc1,,inactive: 46.1%
COc1cccc(/C=C/C(=O)OCC(=O)N(C)CC(=O)Nc2ccccc2Cl)c1OC,"inconclusive: 4.65 µM [inhibitor, partial curve, poor fit]",
CSc1ccc(/C=C/C(=O)OCC(=O)N(C)CCC#N)cc1,,inactive: 10.6%
O=C(Nc1ccc(OC(F)(F)F)cc1)c1ccc(S(=O)(=O)N2CCOCC2)o1,"inconclusive: 10.4 µM [inhibitor, single point]",
CC1CN(c2ncc(/C=N/NC(=O)c3ccccc3O)s2)CC(C)O1 (stereo not drawn),"inconclusive: 0.928 µM [inhibitor, full curve, poor fit]",
CN(C)C(CNC(=O)c1cc(S(=O)(=O)N(C)Cc2ccccc2)ccc1Cl)c1ccco1 (stereo not drawn),"inconclusive: 10.4 µM [inhibitor, single point]",
O=C(NC12CC3CC(CC(C3)C1)C2)c1ccc(N2CCNCC2)c([N+](=O)[O-])c1,"inconclusive: 8.28 µM [inhibitor, partial curve, poor fit]",

# Quoted from the listing for reference:
Structure (SMILES),Potency,"activity change, negative = inhibition"
COc1cccc(/C=C/C(=O)OCC(=O)N(C)CC(=O)Nc2ccccc2Cl)c1OC,"inconclusive: 4.65 µM [inhibitor, partial curve, poor fit]",
CSc1ccc(/C=C/C(=O)OCC(=O)N(C)CCC#N)cc1,,inactive: 10.6%
O=C(Nc1ccc(OC(F)(F)F)cc1)c1ccc(S(=O)(=O)N2CCOCC2)o1,"inconclusive: 10.4 µM [inhibitor, single point]",
CC1CN(c2ncc(/C=N/NC(=O)c3ccccc3O)s2)CC(C)O1 (stereo not drawn),"inconclusive: 0.928 µM [inhibitor, full curve, poor fit]",
CN(C)C(CNC(=O)c1cc(S(=O)(=O)N(C)Cc2ccccc2)ccc1Cl)c1ccco1 (stereo not drawn),"inconclusive: 10.4 µM [inhibitor, single point]",

# Continued.

Structure (SMILES),Potency,"activity change, negative = inhibition"
Cc1cccc(C(=O)OCC(=O)N(C)C(c2ccccc2)c2ccccc2)c1[N+](=O)[O-],"inconclusive: 10.4 µM [inhibitor, single point]",
O=C(CS(=O)(=O)c1ccc2ccccc2c1)Nc1ccccc1Cl,"inconclusive: 18.5 µM [inhibitor, single point]",
CSc1nsc(SC)c1C(=O)NC(=O)Nc1cccnc1,,inactive: 1.5%
O=C(N/N=C/c1ccc([N+](=O)[O-])cc1)c1cccc2cc[nH]c12,"inconclusive: 18.5 µM [inhibitor, single point]",
c1ccc(Cn2nnc3c(N4CCCCCC4)ncnc32)cc1,"inconclusive: 0.0026 µM [inhibitor, full curve, poor fit]",
Cc1cc(C)c(C)c(S(=O)(=O)Nc2ccc3cn[nH]c3c2)c1C,"inconclusive: 5.22 µM [inhibitor, partial curve, poor fit]",
CC(C)(C)N1C(=O)c2ccccc2NC(=O)N1Cc1ccccc1,"inconclusive: 14.7 µM [inhibitor, partial curve, poor fit]",
CC(C)N(Cc1nnc(-c2ccccc2Cl)o1)C(=O)c1cccc(C#N)c1,,inactive: 6.15%
COc1cc(C(c2c(C)[nH][nH]c2=O)c2c(C)[nH][nH]c2=O)cc(Br)c1OC,active: 7.38 µM,
CC(C)c1onc(C(=O)NCc2ccccn2)c1[N+](=O)[O-],,inactive: 2.44%
Cc1ccc(NC(=O)c2ccccc2Cl)cc1-n1cnnn1,,inactive: 11.1%
CC(NC(=O)C(=O)N1CCCCC1)C(c1cccs1)N1CCN(Cc2ccccc2)CC1 (stereo not drawn),"inconclusive: 18.5 µM [inhibitor, single point]",
CN(C)S(=O)(=O)c1ccc(C(=O)Nc2nnc(-c3cccs3)o2)cc1,"inconclusive: 11.7 µM [inhibitor, single point]",
Cc1cc(C)nc(SCc2ccc(C(=O)O)o2)n1,"inconclusive: 3.29 µM [inhibitor, partial curve, poor fit]",
CS(=O)(=O)Nc1cccc(C2=NN(C(=O)c3cccc(F)c3)C(c3cccs3)C2)c1 (stereo not drawn),,inactive: 23.1%
CCN(CC)CCCN=C(N)N,,inactive: 45.7%
Cc1ccc(S(=O)(=O)NNC2=NS(=O)(=O)c3ccccc32)c(C)c1,"inconclusive: 4.15 µM [inhibitor, single point]",
O=C(Nc1ccc2c(c1)OCO2)c1cc(-c2ccc(O)cc2)on1,,inactive: 17.9%
O=C(Nc1ccc(F)cc1)N1CCC(c2nc3c(nnn3Cc3ccccc3Cl)c(=O)[nH]2)CC1,,inactive: -3.26%
Cc1cc(C)c2c(n1)SCC(=O)N2CC(=O)Nc1ccccc1Cl,,inactive: -10%
Cc1ccc(S(=O)(=O)CCC(=O)OC(C)C(=O)Nc2ccc(N3CCOCC3)cc2)cc1 (stereo not drawn),,inactive: 46.3%
Cc1nn(-c2ccccc2)c(C)c1/C=C/C(=O)OC(C)C(=O)Nc1ncc(Cl)cc1Cl (stereo not drawn),,inactive: 27%
CN(CC1CCCN(CCc2ccc(F)cc2)C1)C(=O)CCC(F)(F)F (stereo not drawn),"inconclusive: 18.5 µM [inhibitor, single point]",
